The exact form of at least one protein or probe is not confirmed. For some of these results: Results from cells or extracts need not show a direct contact. For some of these results: A weaker result is weaker than the reference pair of the same experiment.
Legend:
[1] = molecular target: LD555-labeled telomerase catalytic core (hTERT + hTR fragments) (human) (UniProt O14746); assay: smFRET; details: no dNTPs, stable high FRET ~0.7; 5' biotin; amino-C6 dT at T13; protein translated in vitro; protein details: N-terminal FLAG on TERT; label: Cy5 on amino-dT at T13; single-stranded DNA
[2] = molecular target: Halo-3xFLAG-telomerase (hTERT/hTR RNP) (human) (UniProt O14746); assay: EMSA; details: 5' phosphate, EMSA: 20 mM HEPES-KOH pH 7.5, 100 mM KCl, 0.5 mM MgCl2, 0.5 mM TCEP-HCl, 0.05% IGEPAL CO-630, 8% glycerol, 50 ug/mL BSA, 30 min, 22 C, protein in a lysate after overexpression, protein details: N-terminal Halo-3xFLAG on TERT, JF-635 on Halo, label: internal fluorescein-dT at T8

Amino acid sequences for entries named in this document (tags omitted). A change or cut given only in a name is not applied to a line headed by its entry.
UniProt O14746: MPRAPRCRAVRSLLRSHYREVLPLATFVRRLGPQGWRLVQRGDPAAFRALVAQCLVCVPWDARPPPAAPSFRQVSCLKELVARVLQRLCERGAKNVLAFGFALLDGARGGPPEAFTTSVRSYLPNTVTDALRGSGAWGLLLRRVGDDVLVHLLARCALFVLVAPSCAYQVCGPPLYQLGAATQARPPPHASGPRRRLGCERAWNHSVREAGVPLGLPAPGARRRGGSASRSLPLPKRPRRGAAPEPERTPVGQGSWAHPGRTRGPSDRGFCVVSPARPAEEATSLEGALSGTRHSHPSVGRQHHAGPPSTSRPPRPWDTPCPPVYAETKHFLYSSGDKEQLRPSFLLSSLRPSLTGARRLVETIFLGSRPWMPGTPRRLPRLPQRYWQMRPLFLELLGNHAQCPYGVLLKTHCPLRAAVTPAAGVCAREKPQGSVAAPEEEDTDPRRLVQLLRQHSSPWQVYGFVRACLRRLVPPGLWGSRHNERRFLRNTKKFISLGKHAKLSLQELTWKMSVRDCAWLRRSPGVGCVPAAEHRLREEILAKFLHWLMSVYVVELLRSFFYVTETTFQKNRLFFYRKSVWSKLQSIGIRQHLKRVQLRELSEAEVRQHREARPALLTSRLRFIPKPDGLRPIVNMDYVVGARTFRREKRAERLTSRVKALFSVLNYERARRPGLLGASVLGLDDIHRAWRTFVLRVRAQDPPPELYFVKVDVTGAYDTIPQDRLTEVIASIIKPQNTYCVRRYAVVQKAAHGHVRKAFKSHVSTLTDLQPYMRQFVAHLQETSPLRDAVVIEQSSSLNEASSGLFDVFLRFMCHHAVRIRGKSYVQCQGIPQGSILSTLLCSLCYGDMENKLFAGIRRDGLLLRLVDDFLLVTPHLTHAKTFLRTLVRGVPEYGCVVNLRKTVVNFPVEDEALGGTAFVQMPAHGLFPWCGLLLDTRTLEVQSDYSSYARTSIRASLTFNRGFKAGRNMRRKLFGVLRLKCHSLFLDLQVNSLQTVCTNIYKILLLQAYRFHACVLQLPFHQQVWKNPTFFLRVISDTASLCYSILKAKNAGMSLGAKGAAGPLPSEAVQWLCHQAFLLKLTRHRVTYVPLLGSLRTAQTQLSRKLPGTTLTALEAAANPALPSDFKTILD

Q: Does “TTAGGGTTAGGGTTAGGG [smFRET primer (TTAGGG)3]” bind [1]?
A: binds

Q: Does “TTCAGAGTCTGACGGCTGCTACCTACGGCCTT [EMSAscramble]” bind ([2]; very weak binding, single-stranded DNA)?
A: binds more weakly

Q: Does “TTCAGAGTCTGACGGTTAGGGTTAGGGTTAG [EMSAoligo1 (telomeric, 3' dG)]” bind ([2]; 1-20 nM telomerase, 2.5 nM DNA, single-stranded DNA)?
A: binds

Q: Does “TTCAGAGTCTGACGGTTAGGGTTAGGGTTAG [EMSAoligo2 (telomeric, 3' 6-thio-dG)]” bind ([2]; 1-20 nM telomerase, 2.5 nM DNA, % bound not significantly different from unmodified, 3'-terminal G31 is 6-thio-dG, synthetic backbone)?
A: binds

— paper PMC12764492, “Therapeutic 6-thio-deoxyguanosine inhibits telomere elongation in cancer cells by inducing a non-productive stalled telomerase complex” (Nature Communications, 2025)
